These are yes or no findings as the source states them, for the method shown. Some results given as binding are weak or reduced against the parent protein; the word gives no strength.
Tests used:
[1] = molecular target: wild-type NRP-1 expressed on transiently transfected M21 melanoma cells (UniProt O14786); test: phage binding to M21 melanoma cells transiently transfected with NRP-1
[2] = molecular target: wild-type NRP-1 expressed on transiently transfected M21 melanoma cells (UniProt O14786); test: immunostaining and confocal imaging of M21 cells transiently transfected with NRP-1, 3 hours at 37 C

By UniProt entry, the sequences of proteins in these tests, tags left out. Residues count along the entry.
UniProt O14786, residues 22-923: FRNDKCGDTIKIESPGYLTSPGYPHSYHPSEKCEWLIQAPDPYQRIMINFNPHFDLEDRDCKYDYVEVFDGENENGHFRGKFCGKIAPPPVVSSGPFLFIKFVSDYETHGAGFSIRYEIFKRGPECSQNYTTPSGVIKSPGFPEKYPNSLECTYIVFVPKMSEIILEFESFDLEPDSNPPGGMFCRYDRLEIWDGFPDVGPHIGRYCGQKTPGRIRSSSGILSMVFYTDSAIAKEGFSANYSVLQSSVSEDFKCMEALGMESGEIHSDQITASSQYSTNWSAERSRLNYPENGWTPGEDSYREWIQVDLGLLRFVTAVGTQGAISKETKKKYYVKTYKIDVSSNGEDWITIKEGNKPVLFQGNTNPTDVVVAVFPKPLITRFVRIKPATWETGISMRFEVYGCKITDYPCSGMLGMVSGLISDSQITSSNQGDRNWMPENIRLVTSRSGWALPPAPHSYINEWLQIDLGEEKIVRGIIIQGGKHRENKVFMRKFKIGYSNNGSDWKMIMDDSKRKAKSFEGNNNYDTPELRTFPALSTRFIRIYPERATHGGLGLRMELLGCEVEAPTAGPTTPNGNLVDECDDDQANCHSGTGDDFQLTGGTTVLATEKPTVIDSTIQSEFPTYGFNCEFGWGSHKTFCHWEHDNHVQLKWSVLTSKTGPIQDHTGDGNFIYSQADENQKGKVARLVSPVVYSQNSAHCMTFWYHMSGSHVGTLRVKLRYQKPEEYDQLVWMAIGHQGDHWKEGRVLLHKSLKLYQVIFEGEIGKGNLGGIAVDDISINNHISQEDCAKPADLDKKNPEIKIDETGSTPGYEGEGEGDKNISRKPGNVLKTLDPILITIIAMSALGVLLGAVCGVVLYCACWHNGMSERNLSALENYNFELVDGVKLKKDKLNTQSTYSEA

B1: T7 phage displaying RPARPAR (SEQ ID NO:2) (peptide)
chain: RPARPAR
notes: also called RPARPAR phage; RPARPAR T7; not shown: T7 bacteriophage major coat protein gp10 (T7-select display system); Limits
In the case of B1, the binding [1] is reported as “binds” and the binding [2] is reported as “binds”.
